± gives the standard deviation of the averaged measurements. The effect of the compound repeats well; differences between the knockouts mostly do not.
System: ZR-75-1
Assay: relative cell number vs DMSO control (72 h) (% of DMSO); higher = less growth inhibition (more cells)
Experimental: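 QMAP-Seq: a pool of 5 breast cancer cell lines (ZR-75-1, SKBR3, HCC-38, MDA-MB-231, BT-20), each carrying 12 doxycycline-inducible Cas9 sgRNA perturbations (11 knockouts plus non-targeting sgNT), was treated with compounds for 72 h at four 10-fold doses (10 nM-10 uM or 1 nM-1 uM range). Barcodes were amplified and sequenced, and cell number was interpolated from 293T spike-in standard curves. The result is expressed as % of the median of DMSO wells. Two biological replicates.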

[1] = sgRNA knockout: sgATF3, 1000 nM
[2] = sgRNA knockout: sgATF3, 10000 nM
[3] = sgRNA knockout: sgATF4, 1000 nM
[4] = sgRNA knockout: sgATF4, 10000 nM
[5] = sgRNA knockout: sgATF6, 1000 nM
[6] = sgRNA knockout: sgATF6, 10000 nM
[7] = sgRNA knockout: sgATG7, 1000 nM
[8] = sgRNA knockout: sgATG7, 10000 nM
[9] = sgRNA knockout: sgERN1, 1000 nM
[10] = sgRNA knockout: sgERN1, 10000 nM
[11] = sgRNA knockout: sgHSF2, 1000 nM
[12] = sgRNA knockout: sgHSF2, 10000 nM
[13] = sgRNA knockout: sgNFE2L2, 10 nM
[14] = sgRNA knockout: sgNFE2L2, 100 nM
[15] = sgRNA knockout: sgNFE2L2, 1000 nM
[16] = sgRNA knockout: sgNFE2L2, 10000 nM
[17] = sgRNA knockout: sgSLC35F2, 10 nM
[18] = sgRNA knockout: sgSLC35F2, 100 nM
[19] = sgRNA knockout: sgSLC35F2, 1000 nM
[20] = sgRNA knockout: sgSLC35F2, 10000 nM
[21] = sgRNA knockout: sgXBP1, 1000 nM
[22] = sgRNA knockout: sgXBP1, 10000 nM

| Structure (SMILES) | relative cell number (sgRNA knockout: sgATF3, 10 nM) | relative cell number (sgRNA knockout: sgATF3, 100 nM) | relative cell number [1] | relative cell number [2] | relative cell number (sgRNA knockout: sgATF4, 10 nM) | relative cell number (sgRNA knockout: sgATF4, 100 nM) | relative cell number [3] | relative cell number [4] | relative cell number (sgRNA knockout: sgATF6, 10 nM) | relative cell number (sgRNA knockout: sgATF6, 100 nM) | relative cell number [5] | relative cell number [6] | relative cell number (sgRNA knockout: sgATG7, 10 nM) | relative cell number (sgRNA knockout: sgATG7, 100 nM) | relative cell number [7] | relative cell number [8] | relative cell number (sgRNA knockout: sgERN1, 10 nM) | relative cell number (sgRNA knockout: sgERN1, 100 nM) | relative cell number [9] | relative cell number [10] | relative cell number (sgRNA knockout: sgHSF2, 10 nM) | relative cell number (sgRNA knockout: sgHSF2, 100 nM) | relative cell number [11] | relative cell number [12] | relative cell number [13] | relative cell number [14] | relative cell number [15] | relative cell number [16] | relative cell number [17] | relative cell number [18] | relative cell number [19] | relative cell number [20] | relative cell number (sgRNA knockout: sgXBP1, 10 nM) | relative cell number (sgRNA knockout: sgXBP1, 100 nM) | relative cell number [21] | relative cell number [22] |
| --- | --- | --- | --- | --- | --- | --- | --- | --- | --- | --- | --- | --- | --- | --- | --- | --- | --- | --- | --- | --- | --- | --- | --- | --- | --- | --- | --- | --- | --- | --- | --- | --- | --- | --- | --- | --- |
| COc1cc(C(=O)N2CCC(N3CCN(C)CC3)CC2)ccc1Nc1ncc2c(n1)N(C)c1ccccc1C(=O)N2C [LRRK2IN1] | 125 ± 13 | 121 ± 10 | 74 ± 16 | 25.6 ± 2.7 | 161 ± 16 | 118 ± 9.4 | 75.6 ± 39 | 23.3 ± 1.1 | 121 ± 12 | 94.8 ± 21 | 82.6 ± 18 | 15.9 ± 0.32 | 106 ± 21 | 99.7 ± 15 | 66.5 ± 1.7 | 32.1 ± 10 | 117 ± 2.5 | 124 ± 26 | 64.7 ± 12 | 36.5 ± 1.2 | 97.4 ± 28 | 93.8 ± 22 | 78.5 ± 11 | 29.8 ± 2.1 | 109 ± 26 | 112 ± 9.1 | 75.2 ± 6.5 | 30.7 ± 12 | 112 ± 7 | 74.4 ± 38 | 78.3 ± 24 | 16.1 ± 2.5 | 116 ± 10 | 110 ± 14 | 80.4 ± 1.8 | 34.7 ± 5.3 |
| C=CCc1cccc(/C=N/NC(=O)CN2CCN(Cc3ccccc3)CC2)c1O [PAC1] | 127 ± 4.5 | 102 ± 29 | 97.3 ± 3.9 | 24.8 ± 11 | 80.6 ± 4.7 | 80 ± 25 | 84.1 ± 12 | 22.9 ± 14 | 64.8 ± 21 | 93.4 ± 40 | 94.9 ± 43 | 15.2 ± 11 | 108 ± 11 | 94 ± 16 | 90.2 ± 31 | 22.3 ± 7.8 | 76.9 ± 40 | 93.8 ± 14 | 94.5 ± 12 | 23.1 ± 14 | 114 ± 10 | 92.2 ± 12 | 86.8 ± 2.3 | 19.6 ± 1.8 | 78.3 ± 23 | 74.7 ± 34 | 78.5 ± 6.9 | 20.4 ± 11 | 69.6 ± 49 | 47.7 ± 7.4 | 71.4 ± 37 | 17.8 ± 3 | 87.5 ± 25 | 83.8 ± 7.8 | 81.6 ± 7.8 | 19.4 ± 6.5 |
| COC(=O)Nc1nc2cc(C(=O)c3ccccc3)ccc2[nH]1 [Mebendazole] | 107 ± 21 | 62.9 ± 20 | 54.3 ± 8.5 | 16.1 ± 4.9 | 114 ± 25 | 49.7 ± 21 | 34 ± 2.8 | 23.9 ± 3.4 | 82.6 ± 49 | 62.9 ± 9.3 | 39.1 ± 7.4 | 13.1 ± 4.9 | 111 ± 59 | 72.4 ± 29 | 34.2 ± 3.6 | 17 ± 5 | 73.9 ± 9.8 | 64.6 ± 9.7 | 37.2 ± 11 | 23.6 ± 7.1 | 106 ± 2.6 | 72.14 ± 0.44 | 30.1 ± 0.69 | 15.5 ± 3.8 | 141 ± 17 | 58.1 ± 6.1 | 35.4 ± 4.9 | 15.85 ± 0.052 | 63.669 ± 0.0092 | 84.85 ± 0.27 | 34.3 ± 14 | 11.5 ± 9.4 | 112 ± 17 | 67.4 ± 9.7 | 36.84 ± 0.33 | 18.6 ± 0.36 |
| CN(C)CC[C@H](CSc1ccccc1)Nc1ccc(S(=O)(=O)NC(=O)c2ccc(N3CCN(Cc4ccccc4-c4ccc(Cl)cc4)CC3)cc2)cc1[N+](=O)[O-] [ABT737] | 121 ± 40 | 112 ± 2.2 | 105 ± 2.3 | 104 ± 29 | 97.8 ± 6.1 | 99.6 ± 21 | 132 ± 17 | 66 ± 27 | 113 ± 45 | 101 ± 20 | 80.6 ± 57 | 105 ± 16 | 77.2 ± 5.8 | 105 ± 12 | 92.2 ± 20 | 92.6 ± 3.2 | 102 ± 4.2 | 80.2 ± 4.8 | 104 ± 13 | 92 ± 12 | 121 ± 4.5 | 103 ± 2.4 | 87 ± 19 | 105 ± 23 | 93.8 ± 5.5 | 109 ± 5.9 | 108 ± 1.3 | 134 ± 24 | 105 ± 64 | 112 ± 20 | 112 ± 10 | 75.7 ± 12 | 97.1 ± 3.2 | 95.6 ± 1.5 | 118 ± 26 | 119 ± 35 |

— the supplement of paper PMC7661543
